Data on one molecule can be found in ChEMBL document CHEMBL6092145, “Recent advances in the design of small molecular drugs with acrylamides covalent warheads” (Bioorg Med Chem, 2024).

The target in the assay is T1, Tyrosine-protein kinase JAK3 (Homo sapiens, UniProt P52333).
T1 sequence (P52333 whole entry): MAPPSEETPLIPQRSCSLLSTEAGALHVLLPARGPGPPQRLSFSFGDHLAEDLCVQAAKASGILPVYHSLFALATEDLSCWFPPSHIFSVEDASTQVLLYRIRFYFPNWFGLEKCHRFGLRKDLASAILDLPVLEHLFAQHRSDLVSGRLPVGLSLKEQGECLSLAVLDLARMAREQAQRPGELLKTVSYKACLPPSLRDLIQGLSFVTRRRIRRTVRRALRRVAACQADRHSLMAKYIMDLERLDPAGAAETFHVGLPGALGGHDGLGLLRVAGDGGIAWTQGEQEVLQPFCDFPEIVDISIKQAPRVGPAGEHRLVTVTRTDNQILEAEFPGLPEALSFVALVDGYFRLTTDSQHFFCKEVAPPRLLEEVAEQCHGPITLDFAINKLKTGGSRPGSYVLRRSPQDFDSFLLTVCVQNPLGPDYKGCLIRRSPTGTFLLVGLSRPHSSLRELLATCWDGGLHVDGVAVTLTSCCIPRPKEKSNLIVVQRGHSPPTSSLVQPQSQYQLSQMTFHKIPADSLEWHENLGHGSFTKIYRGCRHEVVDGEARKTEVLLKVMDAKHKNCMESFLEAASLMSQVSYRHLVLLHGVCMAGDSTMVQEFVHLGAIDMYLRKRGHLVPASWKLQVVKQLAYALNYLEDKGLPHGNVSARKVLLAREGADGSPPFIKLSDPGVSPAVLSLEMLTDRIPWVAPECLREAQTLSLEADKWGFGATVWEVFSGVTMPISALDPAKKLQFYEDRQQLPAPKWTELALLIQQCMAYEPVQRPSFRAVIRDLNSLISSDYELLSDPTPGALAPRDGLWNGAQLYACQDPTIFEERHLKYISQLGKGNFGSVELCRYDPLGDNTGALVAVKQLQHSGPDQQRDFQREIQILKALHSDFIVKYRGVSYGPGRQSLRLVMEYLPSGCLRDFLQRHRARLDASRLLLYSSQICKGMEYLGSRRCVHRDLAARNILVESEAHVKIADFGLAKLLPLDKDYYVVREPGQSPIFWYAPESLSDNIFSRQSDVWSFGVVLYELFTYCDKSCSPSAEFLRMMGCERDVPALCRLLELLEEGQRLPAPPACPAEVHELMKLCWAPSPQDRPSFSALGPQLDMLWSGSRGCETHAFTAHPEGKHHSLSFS
Briefly: biochemical. It counts as cell-based, Sf9.

Regarding `CN(C)C(=O)/C(C#N)=C/c1ccc(-c2nc3cnc4[nH]ccc4c3n2C2CCCCC2)o1`, the IC50 (in general, the concentration needed to halve the response being measured) amounted to 0.15 nM.
